Values from PubChem BioAssay AID1224826 (NIAID, 2016)
Aim: 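Knock-downs that raise or lower Tnf reporter signal after endotoxin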 (primary screen). Cell system: RAW264.7 G9 macrophages from mouse bearing reporters for p65 (GFP) and the Tnf promoter (mCherry). Reagent: siRNA pool against mouse genes, 100 nM. Time to read-out: 16 h of LPS stimulation, after 2 days of siRNA transfection. Conditions: bacterial lipopolysaccharide (Salmonella minnesota R595), 10 ng/ml. Measurement: 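Imaged Tnf reporter mCherry in nuclei, minus background, normalised per plate to the median and expressed as robust z-scores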. Direction: Tnf reporter robust z-score: higher = stronger Tnf promoter reporter signal after LPS; Tnf reporter intensity: higher = stronger Tnf promoter reporter signal. Hit rule: 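Called active when robust z-score is at most -1.3, matching the median of the Tlr4 knock-down control, or over 3; control wells and wells with under 50 cells never active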. Calls: active = Tnf reporter clearly lowered or raised; inactive = no clear change in Tnf reporter.
The deposit covers about 17,000 reagents; this is a part drawn at random. About 1,110 of them (6.6%) count as active. 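Active means lowered or raised reporter signal; replicate intensities are raw and not normalised per plate.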 A number with no mark means an inactive call. Reagents against one gene are numbered here.

gene symbol | reagent | Tnf reporter robust z-score | fewer than 50 cells in well | Tnf reporter intensity, replicate 1 | Tnf reporter intensity, replicate 2
Gpr162 | 1 | -0.39 | enough cells in well | 172 | 282
Cacna1a | 1 | -0.67 | enough cells in well | 119 | 115
Klk1b21 | 1 | 1.07 | enough cells in well | 248 | 188
Tspear | 1 | 0.55 | enough cells in well | 129 | 200
Elf2 | 1 | -0.38 | enough cells in well | 178 | 225
Smim14 | 1 | 0.65 | enough cells in well | 273 | 107
Or5ak25 | 1 | -0.8 | enough cells in well | 92 | 112
Huwe1 | 1 | 0.17 | enough cells in well | 252 | 233
Dhx8 | 1 | – | fewer than 50 cells per well; well left out of calls | 11.2 | 65.5
Or8s10 | 1 | -0.2 | enough cells in well | 155 | 122
Slc30a1 | 1 | – | fewer than 50 cells per well; well left out of calls | 44.5 | 64.4
Ppard | 1 | 0.24 | enough cells in well | 255 | 218
Vmn2r1 | 1 | -0.7 | enough cells in well | 158 | 101
Zdhhc20 | 1 | -0.53 | enough cells in well | 128 | 121
Tex264 | 1 | 2.09 | enough cells in well | 170 | 185
Ppp1r2-ps9 | 1 | -0.05 | enough cells in well | 140 | 171
Smim12 | 1 | -0.7 | enough cells in well | 159 | 157
Bpifb3 | 1 | -0.31 | enough cells in well | 136 | 92.7
Rp2 | 1 | 2.07 | enough cells in well | 320 | 286
Pigm | 1 | -0.48 | enough cells in well | 128 | 107
Fbxo38 | 1 | 2.46 | enough cells in well | 382 | 297

Laid out differently: 10 of the entries above.
Smim14 → Tnf reporter robust z-score = 0.65; fewer than 50 cells in well = enough cells in well; Tnf reporter intensity, replicate 1 = 273; Tnf reporter intensity, replicate 2 = 107
Or5ak25 → Tnf reporter robust z-score = -0.8; fewer than 50 cells in well = enough cells in well; Tnf reporter intensity, replicate 1 = 92; Tnf reporter intensity, replicate 2 = 112
Huwe1 → Tnf reporter robust z-score = 0.17; fewer than 50 cells in well = enough cells in well; Tnf reporter intensity, replicate 1 = 252; Tnf reporter intensity, replicate 2 = 233
Dhx8 → fewer than 50 cells in well = fewer than 50 cells per well; well left out of calls; Tnf reporter intensity, replicate 1 = 11.2; Tnf reporter intensity, replicate 2 = 65.5
Or8s10 → Tnf reporter robust z-score = -0.2; fewer than 50 cells in well = enough cells in well; Tnf reporter intensity, replicate 1 = 155; Tnf reporter intensity, replicate 2 = 122
Slc30a1 → fewer than 50 cells in well = fewer than 50 cells per well; well left out of calls; Tnf reporter intensity, replicate 1 = 44.5; Tnf reporter intensity, replicate 2 = 64.4
Ppard → Tnf reporter robust z-score = 0.24; fewer than 50 cells in well = enough cells in well; Tnf reporter intensity, replicate 1 = 255; Tnf reporter intensity, replicate 2 = 218
Vmn2r1 → Tnf reporter robust z-score = -0.7; fewer than 50 cells in well = enough cells in well; Tnf reporter intensity, replicate 1 = 158; Tnf reporter intensity, replicate 2 = 101
Zdhhc20 → Tnf reporter robust z-score = -0.53; fewer than 50 cells in well = enough cells in well; Tnf reporter intensity, replicate 1 = 128; Tnf reporter intensity, replicate 2 = 121
Tex264 → Tnf reporter robust z-score = 2.09; fewer than 50 cells in well = enough cells in well; Tnf reporter intensity, replicate 1 = 170; Tnf reporter intensity, replicate 2 = 185

More reagents follow:
gene symbol | reagent | Tnf reporter robust z-score | fewer than 50 cells in well | Tnf reporter intensity, replicate 1 | Tnf reporter intensity, replicate 2
Ccl2 | 1 | 1.7 | enough cells in well | 405 | 310
Gzme | 1 | 0.25 | enough cells in well | 298 | 157
Sirt5 | 1 | 0.71 | enough cells in well | 121 | 131
Akap11 | 1 | -0.36 | enough cells in well | 140 | 166
Cnn3 | 1 | -0.32 | enough cells in well | 119 | 196
B3gnt2 | 1 | -0.21 | enough cells in well | 167 | 145
Ttn | 1 | – | fewer than 50 cells per well; well left out of calls | 261 | 162
Ttn | 2 | – | fewer than 50 cells per well; well left out of calls | 71.6 | 18.3
Cited1 | 1 | 0.28 | enough cells in well | 266 | 231
Kcnn4 | 1 | -0.4 | enough cells in well | 157 | 121
Cyp2a5 | 1 | 0.29 | enough cells in well | 251 | 230
Immp1l | 1 | 0.17 | enough cells in well | 252 | 88.2
Tdpoz1 | 1 | 3.1 (active) | enough cells in well | 211 | 216
Dtwd1 | 1 | – | fewer than 50 cells per well; well left out of calls | 53.9 | 24.8
Krtap5-4 | 1 | -0.63 | enough cells in well | 144 | 109
Pde6h | 1 | -0.11 | enough cells in well | 188 | 210
Dusp9 | 1 | -0.31 | enough cells in well | 177 | 214
Rnf216 | 1 | -0.56 | enough cells in well | 182 | 192
Fermt3 | 1 | -1.3 (active) | enough cells in well | 137 | 92.1
Pibf1 | 1 | -0.84 | enough cells in well | 144 | 115
Gpr25 | 1 | -0.17 | enough cells in well | 216 | 253
Zfp653 | 1 | -1.88 (active) | enough cells in well | 73.8 | 55.8
Adpgk | 1 | – | fewer than 50 cells per well; well left out of calls | 247 | 146
Slc7a5 | 1 | -2.02 (active) | enough cells in well | 40.2 | 23.9
Slc38a4 | 1 | – | fewer than 50 cells per well; well left out of calls | 40.6 | 27.6
Clec4a3 | 1 | – | fewer than 50 cells per well; well left out of calls | 163 | 38.8
Or2a14 | 1 | 1.78 | enough cells in well | 99.3 | 190
Sertad1 | 1 | 0.49 | enough cells in well | 336 | 242
Cyb561 | 1 | 1.53 | enough cells in well | 323 | 222
Or6d15 | 1 | – | fewer than 50 cells per well; well left out of calls | 107 | 89.5
Snap25 | 1 | 5.63 (active) | enough cells in well | 305 | 34
Caskin1 | 1 | -0.22 | enough cells in well | 100 | 234
H4c9 | 1 | 1.68 | enough cells in well | 345 | 176
Ndufb5 | 1 | 0.1 | enough cells in well | 254 | 98.7
Cenpa | 1 | 0.02 | enough cells in well | 251 | 206
Pianp | 1 | -0.66 | enough cells in well | 96.4 | 112
Rps6ka4 | 1 | – | fewer than 50 cells per well; well left out of calls | 64.3 | 102
